# Test system: acne papule biopsies, Ingenuity Canonical Pathways
# Test: Ingenuity Pathway Analysis, canonical pathways of the trifarotene signature
# Format: in vivo, human
# Conditions: trifarotene treated area (day 27) vs papule before treatment
compound,measurement,value
"CC(C)(C)c1cc(-c2cc(-c3ccc(C(=O)O)cc3)ccc2OCCO)ccc1N1CCCC1 [Trifarotene, 3″-tert-Butyl-4′-(2-hydroxy-ethoxy)-4″-pyrrolidin-1-yl-[1,1′,3′,1″ ]terphenyl-4-carboxylic acid]",z score Trifarotene Profile: Acute Phase Response Signaling,−3.638
same,z score Trifarotene Profile: Complement System,−1.897
same,z score Trifarotene Profile: Crosstalk between Dendritic Cells and Natural Killer Cells,−4.123
same,z score Trifarotene Profile: Dendritic Cell Maturation,−4.899
same,z score Trifarotene Profile: Fcγ Receptor-mediated Phagocytosis in Macrophages and Monocytes,−3.464
same,z score Trifarotene Profile: HMGB1 Signaling,−3.606
same,z score Trifarotene Profile: HOTAIR Regulatory Pathway,−2.324
same,z score Trifarotene Profile: Hepatic Fibrosis Signaling Pathway,−3.889
same,z score Trifarotene Profile: IL-6 Signaling,−3.051
same,z score Trifarotene Profile: IL-17A Signaling in Airway Cells,−2.646
same,z score Trifarotene Profile: Inhibition of Matrix Metalloproteases,1.897
same,z score Trifarotene Profile: LPS/IL-1 Mediated Inhibition of RXR Function,−1.667
same,z score Trifarotene Profile: LXR/RXR Activation,1.46
same,z score Trifarotene Profile: Leukocyte Extravasation Signaling,−3.838
same,z score Trifarotene Profile: NAD biosynthesis II (from tryptophan),−2
same,z score Trifarotene Profile: Natural Killer Cell Signaling,−3.545
same,z score Trifarotene Profile: Osteoarthritis Pathway,−3.273
same,z score Trifarotene Profile: Production of Nitric Oxide and Reactive Oxygen Species in Macrophages,−3.9
same,z score Trifarotene Profile: Role of IL-17F in Allergic Inflammatory Airway Diseases,−2.53
same,z score Trifarotene Profile: Role of NFAT in Regulation of the Immune Response,−3.771
same,z score Trifarotene Profile: Role of Pattern Recognition Receptors in Recognition of Bacteria and Viruses,−3.873
same,z score Trifarotene Profile: Systemic Lupus Erythematosus In B Cell Signaling Pathway,−2.294
same,z score Trifarotene Profile: TREM1 Signaling,−4.796
same,z score Trifarotene Profile: Th1 Pathway,−2.84
same,z score Trifarotene Profile: Th2 Pathway,−1.807
same,z score Trifarotene Profile: Tryptophan Degradation to 2-amino-3-carboxymuconate Semialdehyde,−2

# — patent US20240058268A1, “METHODS OF TREATING SKIN DISORDERS” (priority 2021, published 2024)
